These are yes or no findings as the source states them, for the method shown. Binding seen in cells or lysates may run through a third protein. Some entries that bind do so weakly or less than the wild type. For part of these data: Tags and fused reporters may be left off the sequences shown.

Experiment [1] concerns the target T1, FLAG-Pemt (UniProt Q61907).
T1 sequence: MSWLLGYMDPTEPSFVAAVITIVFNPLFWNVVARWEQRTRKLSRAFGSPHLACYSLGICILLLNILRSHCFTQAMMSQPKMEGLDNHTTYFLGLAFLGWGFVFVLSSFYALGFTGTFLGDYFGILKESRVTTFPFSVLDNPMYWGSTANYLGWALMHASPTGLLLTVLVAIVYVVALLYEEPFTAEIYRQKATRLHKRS
Kind of experiment: co-IP; FLAG-Pemt and myc-CHC segments co-expressed in NIH3T3 cells; immunoprecipitated by anti-FLAG antibody, blotted with anti-myc antibody.

For experiment [2], the target named is Clathrin heavy chain (CHC), endogenous in mouse liver nuclei (mouse (endogenous in liver)) (UniProt Q68FD5). Description: co-IP; nuclear protein of liver samples (STD and HFHS diets) immunoprecipitated with anti-CHC antibodies, blotted with anti-Pemt antibodies.

B1: myc-CHC (1074–1406) (domain or fragment, UniProt Q68FD5 1074-1406)
chain: KFDVNTSAVQVLIEHIGNLDRAYEFAERCNEPAVWSQLAKAQLQKGMVKEAIDSYIKADDPSSYMEVVQAANASGNWEELVKYLQMARKKARESYVETELIFALAKTNRLAELEEFINGPNNAHIQQVGDRCYDEKMYDAAKLLYNNVSNFGRLASTLVHLGEYQAAVDGARKANSTRTWKEVCFACVDGKEFRLAQMCGLHIVVHADELEELINYYQDRGYFEELITMLEAALGLERAHMGMFTELAILYSKFKPQKMREHLELFWSRVNIPKVLRAAEQAHLWAELVFLYDKYEEYDNAIITMMNHPTDAWKEGQFKDIITKVANVELYYK
Regarding B1, the binding entry in experiment [1] is “binds”.

B2: myc-CHC (1267–1513) (domain or fragment, UniProt Q68FD5 1267-1513)
chain: RLAQMCGLHIVVHADELEELINYYQDRGYFEELITMLEAALGLERAHMGMFTELAILYSKFKPQKMREHLELFWSRVNIPKVLRAAEQAHLWAELVFLYDKYEEYDNAIITMMNHPTDAWKEGQFKDIITKVANVELYYKAIQFYLEFKPLLLNDLLMVLSPRLDHTRAVNYFSKVKQLPLVKPYLRSVQNHNNKSVNESLNNLFITEEDYQALRTSIDAYDNFDNISLAQRLEKHELIEFRRIAAY
Take B2: in experiment [1], the binding result was “binds”.

B3: Phosphatidylethanolamine N-methyltransferase (Pemt), endogenous in mouse liver nuclei (protein, UniProt Q61907-1 1-199)
chain: MSWLLGYMDPTEPSFVAAVITIVFNPLFWNVVARWEQRTRKLSRAFGSPHLACYSLGICILLLNILRSHCFTQAMMSQPKMEGLDNHTTYFLGLAFLGWGFVFVLSSFYALGFTGTFLGDYFGILKESRVTTFPFSVLDNPMYWGSTANYLGWALMHASPTGLLLTVLVAIVYVVALLYEEPFTAEIYRQKATRLHKRS
Consider B3, for which, in experiment [2], the binding result is recorded as “binds”.

For the origin of these results see publication PMC4756298.
